Results deposited as PubChem BioAssay AID504744 (Drosophila RNAi Screening Center, 2011).
Aim: 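Find genes whose loss alters insulin-driven dAkt phosphorylation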 (primary screen). System: Drosophila Kc167 cells. Knock-down reagent: long dsRNA against Drosophila genes, 250 ng dsRNA per well of a 384-well plate. Time to read-out: 3 days of knock-down, then overnight serum-free starvation before stimulation. Conditions: bovine insulin at 387 nM for 10 minutes after 12 h without serum. Measured: 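In-cell antibody fluorescence for phospho-dAkt in each well over DNA-dye signal, with log2 residuals expressed as z-scores adjusted for cell count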. Hit rule: 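Hit in the insulin screen when the two-replicate mean z-score is more extreme than plus or minus 2.5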.
The deposit covers about 23,000 reagents; shown is a random part of those with a known target gene and a result. Of all reagents, 98 (0.43%) are marked active. 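Only hit calls are given; the phospho-dAkt signals, z-scores and hit direction were not deposited.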 Reagents against one gene are numbered here. A plus sign joins genes that one reagent is predicted to hit.

| predicted target | reagent no. | Outcome |
| --- | --- | --- |
| sad (shadow) | 1 | inactive |
| CG10226 | 1 | inactive |
| Letm1 | 1 | inactive |
| kkv (krotzkopf verkehrt) | 1 | inactive |
| Cul1 (Cullin 1) | 1 | inactive |
| NPFR (Neuropeptide F receptor) | 1 | inactive |
| CR42546 (pseudo) | 1 | inactive |
| CG7694 | 1 | inactive |
| Coop (Corepressor of Pangolin) | 1 | inactive |
| CG14042 + SP555 | 1 | inactive |
| CG14042 + SP555 | 2 | inactive |
| Trf4-2 (Topoisomerase related function 4-2) | 1 | inactive |
| Rbm13 (RNA-binding motif protein 13) | 1 | inactive |
| CG4988 | 1 | inactive |
| eIF3e (eukaryotic translation initiation factor 3 subunit e) | 1 | inactive |
| CG33120 | 1 | inactive |
| CG5664 | 1 | inactive |
| r + CG13012 | 1 | inactive |
| CG32085 | 1 | inactive |
| CG32085 | 2 | inactive |
| CG32085 | 3 | inactive |
| rtp (retinophilin) | 1 | inactive |
| Ntl (Neurotransmitter transporter-like) | 1 | inactive |
| CG32111 (retired record) | 1 | inactive |
| GstD5 (Glutathione S transferase D5) | 1 | inactive |
| CG13965 | 1 | inactive |
| csw (corkscrew) | 1 | inactive |
| CG34178 + CG34177 | 1 | inactive |
| wgn (wengen) | 1 | inactive |
| Phs (Phaser) | 1 | inactive |
| lbk (lambik) | 1 | inactive |
| fd3F + CG42499 (retired record) | 1 | inactive |
| fd3F + CG42499 (retired record) | 2 | inactive |
| Mccc2 (Methylcrotonoyl-CoA carboxylase 2) | 1 | inactive |
| CG9004 | 1 | inactive |
| CG15344 (retired record) | 1 | inactive |
| CG11060 | 1 | inactive |
| ab (abrupt) | 1 | inactive |
| Su(var)3-3 (Suppressor of variegation 3-3) | 1 | inactive |
| Mcm6 (Minichromosome maintenance 6) | 1 | inactive |
| CG14304 | 1 | inactive |
| CG11837 | 1 | inactive |
| Gnmt (Glycine N-methyltransferase) | 1 | inactive |
| CG8281 | 1 | inactive |
| CG2812 | 1 | inactive |
| Ktl (Kctd12-like) | 1 | active |
| CG9098 | 1 | inactive |
| CG9098 | 2 | inactive |
| CG13002 | 1 | inactive |
| CG3916 | 1 | inactive |
| CG4452 | 1 | inactive |
| Cpr30B (Cuticular protein 30B) | 1 | inactive |
| CG1998 | 1 | inactive |
| obst-H (obstructor-H) | 1 | inactive |
| obst-H (obstructor-H) | 2 | inactive |
| CG17567 (retired record) | 1 | inactive |
| CG17567 (retired record) | 2 | inactive |
| CG17807 | 1 | inactive |
| CG34054 | 1 | inactive |
| CG2186 | 1 | inactive |
| Gr97a (Gustatory receptor 97a) | 1 | inactive |
| CG15226 (retired record) | 1 | inactive |
| CG15226 (retired record) | 2 | inactive |
| Or10a (Odorant receptor 10a) | 1 | inactive |
| PIG-Wb (Phosphatidylinositol glycan anchor biosynthesis class W b) | 1 | inactive |
| Etl1 | 1 | inactive |
| Rpi (Ribose-5-phosphate isomerase) | 1 | inactive |
| CG17646 | 1 | inactive |
| CG32305 | 1 | inactive |
| Ttc30 (Tetratricopeptide repeat domain 30) | 1 | inactive |
| Ttc30 (Tetratricopeptide repeat domain 30) | 2 | inactive |
| CG42613 | 1 | inactive |
| CG42613 | 2 | inactive |
| CG42613 | 3 | inactive |
| vg (vestigial) | 1 | inactive |
| vg (vestigial) | 2 | inactive |
| Nek2 | 1 | inactive |
| CG32447 | 1 | inactive |
| CG32447 | 2 | inactive |
| ATPsynB (ATP synthase, subunit B) | 1 | inactive |
| mtgo (miles to go) | 1 | inactive |
| mtgo (miles to go) | 2 | inactive |
| mtgo (miles to go) | 3 | inactive |
| mtgo (miles to go) | 4 | inactive |
| mtgo (miles to go) | 5 | inactive |
| CG3841 | 1 | inactive |
| wac (wee Augmin) | 1 | inactive |
| CG15142 | 1 | inactive |
| Nepl15 (Neprilysin-like 15) | 1 | inactive |
| JMJD5 (Jumonji domain containing 5) | 1 | inactive |
| JIL-1 (JIL-1 kinase) | 1 | inactive |
| strat (stratum) | 1 | inactive |
| CG13177 | 1 | inactive |
| CG18265 | 1 | inactive |
| CoRest | 1 | inactive |
| CoRest | 2 | inactive |
| CoRest | 3 | inactive |
| CG30076 | 1 | inactive |
| CG16723 | 1 | inactive |
| CG10063 | 1 | inactive |
| Zasp66 (Z band alternatively spliced PDZ-motif protein 66) | 1 | inactive |
| Zasp66 (Z band alternatively spliced PDZ-motif protein 66) | 2 | inactive |
| Zasp66 (Z band alternatively spliced PDZ-motif protein 66) | 3 | inactive |
| Ir75c (Ionotropic receptor 75c) | 1 | inactive |
| nompA (no mechanoreceptor potential A) | 1 | inactive |
| CAP | 1 | inactive |
| CAP | 2 | inactive |
| CAP | 3 | inactive |
| CAP | 4 | inactive |
| CAP | 5 | inactive |

Not a retest: an excerpt of the list.
| predicted target | reagent no. | Outcome |
| --- | --- | --- |
| CG15226 (retired record) | 1 | inactive |
| CG15226 (retired record) | 2 | inactive |
| Or10a (Odorant receptor 10a) | 1 | inactive |
| PIG-Wb (Phosphatidylinositol glycan anchor biosynthesis class W b) | 1 | inactive |
| Etl1 | 1 | inactive |
| Rpi (Ribose-5-phosphate isomerase) | 1 | inactive |
| CG17646 | 1 | inactive |
| CG32305 | 1 | inactive |
| Ttc30 (Tetratricopeptide repeat domain 30) | 1 | inactive |
| Ttc30 (Tetratricopeptide repeat domain 30) | 2 | inactive |
